US20090170108A1
Positions count from the first letter of the chain named. Results are given in words; binding and its absence hold for the method and conditions named. For some of these results: Binding seen in cells or lysates may run through a third protein. Some entries that bind do so weakly or less than the wild type. For some of these results: Where a sequence is shown, tags or fusion partners need not be part of it.

Key:
[1] = biological target: T1, macrophage migration inhibitory factor (MIF), endogenous, of human ATL2 and HL60 cells (human) (UniProt P14174); experiment: co-immunoprecipitation from ATL2 culture supernatant with anti MIF antibody, Western blot with anti TRX antibody ADF11
T1 sequence: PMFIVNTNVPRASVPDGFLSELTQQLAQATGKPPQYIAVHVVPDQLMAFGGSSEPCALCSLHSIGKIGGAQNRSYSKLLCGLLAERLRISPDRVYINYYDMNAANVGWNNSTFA

[2] = biological target: T1, macrophage migration inhibitory factor (MIF), endogenous, of human ATL2 and HL60 cells (human); experiment: co-immunoprecipitation from ATL2 and HL60 cell lysates with anti MIF antibody, Western blot with anti TRX antibody ADF11
[3] = biological target: T1, macrophage migration inhibitory factor (MIF), endogenous, of human ATL2 and HL60 cells (human); experiment: co-immunoprecipitation from cell lysate with anti MIF antibody, Western blot with anti TRX antibody ADF11
[4] = biological target: T2, His-tagged recombinant MIF (rMIF) expressed in Escherichia coli with vector pQE30 (Homo sapiens (Human)) (UniProt P14174); experiment: SPR (BIAcore2000), rMIF immobilised on CM5 chip
T2 sequence: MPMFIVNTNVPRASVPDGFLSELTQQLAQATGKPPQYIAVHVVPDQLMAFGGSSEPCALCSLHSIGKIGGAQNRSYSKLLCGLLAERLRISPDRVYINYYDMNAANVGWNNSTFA

[5] = biological target: T2, His-tagged recombinant MIF (rMIF) expressed in Escherichia coli with vector pQE30 (Homo sapiens (Human)); experiment: SPR (BIAcore2000), sensor chip NTA, rTRX analyte
[6] = biological target: T2, His-tagged recombinant MIF (rMIF) expressed in Escherichia coli with vector pQE30 (Homo sapiens (Human)); experiment: SPR (BIAcore2000), rMIF immobilised on CM5 chip, rTRX analyte 2 to 12 µM
[7] = biological target: T2, His-tagged recombinant MIF (rMIF) expressed in Escherichia coli with vector pQE30 (Homo sapiens (Human)); experiment: SPR (BIAcore2000), rMIF immobilised on CM5 chip, rTRX 5 µM alone or mixed with test substance (5 or 500 µM)
[8] = biological target: T2, His-tagged recombinant MIF (rMIF) expressed in Escherichia coli with vector pQE30 (Homo sapiens (Human)); experiment: SPR (BIAcore2000), rMIF immobilised on CM5 chip, oxidation state

B1: thioredoxin (TRX), endogenous, of human ATL2 and HL60 cells (enzyme)
chain: VKQIESKTAFQEALDAAGDKLVVVDFSATWCGPCKMIKPFFHSLSEKYSNVIFLEVDVDDCQDVASECEVKCMPTFQFFKKGQKVGEFSGANKEKLEATINELV
binding [1]: binds | binding [2]: binds | binding [3]: binds

B2: His-tagged recombinant TRX (rTRX) expressed in Escherichia coli with vector pQE80L (enzyme, not shown: small tags and cut ends)
chain: MVKQIESKTAFQEALDAAGDKLVVVDFSATWCGPCKMIKPFFHSLSEKYSNVIFLEVDVDDCQDVASECEVKCMPTFQFFKKGQKVGEFSGANKEKLEATINELV
binding [4]: binds | binding [5]: binds | binding [6]: binds | binding [7]: binds

B3: rDM TRX (the rTRX of EXAMPLE 5 in which the cysteine residues at 32 and 35 positions were converted to serine) (enzyme, not shown: small tags and cut ends)
chain: B2 chain with C32S, C35S
binding [4]: binds

B4: rC35S TRX (the rTRX of EXAMPLE 5 in which the cysteine residue at 35 position was converted to serine) (enzyme, not shown: small tags and cut ends)
chain: B2 chain with C35S
binding [4]: binds | binding [8]: binds
